Source: publication PMC6763788
Results are given in words; binding and its absence hold for the method and conditions named. Binding seen in cells or lysates may run through a third protein. A result given as binding can be weak or reduced; the word gives no strength. Tags and fused reporters may be left off the sequences shown.

Molecular target: T1, Flag-RITA (UniProt Q96K30)
T1 sequence: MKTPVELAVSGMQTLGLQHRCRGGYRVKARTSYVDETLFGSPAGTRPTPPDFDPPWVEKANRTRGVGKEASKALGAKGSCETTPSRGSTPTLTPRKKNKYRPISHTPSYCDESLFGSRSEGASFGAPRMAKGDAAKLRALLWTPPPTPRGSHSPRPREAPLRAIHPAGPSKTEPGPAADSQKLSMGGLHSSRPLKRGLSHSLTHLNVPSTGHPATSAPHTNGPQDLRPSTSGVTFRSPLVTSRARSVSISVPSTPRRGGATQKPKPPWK
Assay: co-IP; HeLa cells transfected with Flag empty vector or Flag-RITA; lysates in RIPA buffer (600-800 µg); Flag-M2 affinity gel, 4 °C overnight, washed three times; western blot

binding: binds
Substance: α-tubulin (human (endogenous in HeLa))
